Laboratory results published in paper PMC10786907.
These are yes or no findings as the source states them, for the method shown. Binding seen in cells or lysates may run through a third protein. Here binding means that the protein was enriched with, or labelled near, the bait; the list need not be complete. Tags and fused reporters may be left off the sequences shown.

Biological target: T1, Flag-FBXO31 (UniProt Q5XUX0)
T1 sequence: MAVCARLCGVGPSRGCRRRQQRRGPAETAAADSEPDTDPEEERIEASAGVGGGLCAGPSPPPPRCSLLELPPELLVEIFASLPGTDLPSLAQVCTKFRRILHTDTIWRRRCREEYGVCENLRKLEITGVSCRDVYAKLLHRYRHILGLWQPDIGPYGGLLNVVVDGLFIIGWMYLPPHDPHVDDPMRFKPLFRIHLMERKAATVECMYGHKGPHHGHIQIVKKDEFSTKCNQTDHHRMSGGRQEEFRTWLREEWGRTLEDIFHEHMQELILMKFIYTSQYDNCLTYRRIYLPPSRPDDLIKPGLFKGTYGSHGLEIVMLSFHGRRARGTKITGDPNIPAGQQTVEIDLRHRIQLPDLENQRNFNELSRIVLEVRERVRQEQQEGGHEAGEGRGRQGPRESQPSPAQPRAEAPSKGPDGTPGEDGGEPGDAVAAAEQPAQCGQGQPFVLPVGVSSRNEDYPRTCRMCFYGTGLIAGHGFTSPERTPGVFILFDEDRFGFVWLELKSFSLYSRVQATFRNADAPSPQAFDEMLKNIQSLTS
Test: affinity purification with mass spectrometry; HEK293T cells transfected with Flag-FBXO31 or EV; Flag magnetic beads; band excised from a Coomassie-stained SDS-PAGE gel; LC-MS/MS, Mascot 2.2

binding: binds
B1: SIRT2 (endogenous, 293T cells) (protein, UniProt Q8IXJ6 1-389)
chain: MAEPDPSHPLETQAGKVQEAQDSDSDSEGGAAGGEADMDFLRNLFSQTLSLGSQKERLLDELTLEGVARYMQSERCRRVICLVGAGISTSAGIPDFRSPSTGLYDNLEKYHLPYPEAIFEISYFKKHPEPFFALAKELYPGQFKPTICHYFMRLLKDKGLLLRCYTQNIDTLERIAGLEQEDLVEAHGTFYTSHCVSASCRHEYPLSWMKEKIFSEVTPKCEDCQSLVKPDIVFFGESLPARFFSCMQSDFLKVDLLLVMGTSLQVQPFASLISKAPLSTPRLLINKEKAGQSDPFLGMIMGLGGGMDFDSKKAYRDVAWLGECDQGCLALAELLGWKKELEDLVRREHASIDAQSGAGVPNPSTSASPKKSPPPAKDEARTTEREKPQ
